In paper PMC7338081:
Results are given in words; binding and its absence hold for the method and conditions named. In cells and extracts the contact can be indirect. For part of these data: A result given as binding can be weak or reduced; the word gives no strength. Blank lines part the entries; values can stand above or below the molecule they belong to.

Legend:
[1] = molecular target: T1, Cox12, a subunit of CIV (S. cerevisiae (endogenous in YPH499 mitochondria)) (UniProt Q01519); experiment: cross-linking; XL-MS, qualitative data sets: purified mitochondria from yeast grown on glycerol or glucose medium, 5 mM BS3, 1 h, room temperature, 10 mM HEPES pH 7.5, 100 mM NaCl; trypsin, peptide SEC, LC-MS/MS, pLink 1, at least two CSMs and spectrum score of 4 or more
T1 sequence: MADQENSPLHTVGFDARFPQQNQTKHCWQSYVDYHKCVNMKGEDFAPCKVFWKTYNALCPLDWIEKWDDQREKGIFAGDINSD

[2] = molecular target: Rcf3 (S. cerevisiae (endogenous in YPH499 mitochondria)); experiment: as above

binding [1]: binds
Molecule: Rcf3

binding [2]: no binding
B1: Rcf2 (protein, UniProt P53721 1-224)
chain: MKILTQDEIEAHRSHTLKGGIEGALAGFAISAIIFKVLPRRYPKFKPSTLTWSIKTALWITPPTVLTAICAEEASNNFDATMYGSGSSSEDALDEHRRWKSLSTKDKFVEGLSNNKYKIITGAWAASLYGSWVIVNKDPIMTKAQKIVQARMYAQFITVGLLLASVGLSMYENKLHPNKQKVNEMRRWENALRVAEEEERLEKEGRRTGYVSNEERINSKIFKS

binding [2]: no binding
B2: Min8 (protein, UniProt A5Z2X5 1-72)
chain: MRPAQLLLNTAKKTSGGYKIPVELTPLFLAVGVALCSGTYFTYKKLRTDETLRLTGNPELSSLDEVLAKDKD
